This note sets out measurements from publication PMC5072635 (PLoS ONE, 2016).

The data set relates to HSA. As for the experimental part: All samples were degassed, and ITC was performed at room temperature as previously described using MicroCal VP-ITC calorimeter. […] The data were analyzed using a single-site binding model provided in the ITC analysis software package. […] The values for ΔH, Kd and stoichiometry averaged ± standard deviation. […] The values for stoichiometry and binding affinity were derived from the ITC experiments.
While the presence of other ligands would increase the proportion of free floating GML unbound to albumin, we assumed there were no other albumin ligands present in the system to simplify our calculations.
(PDF) Click here for additional data file.

Like-named read-outs stand apart in the source and are kept apart here.

`CCCCCCCCCCCC(=O)OCC(O)CO` (centres unmarked) [GML, Glycerol monolaurate]: the “HSA bound to GML” value is 38% (0.2% HSA, 10 μg/ml GML); 75% (0.2% HSA, 20 μg/ml GML); 7.9% (1% HSA, 10 μg/ml GML); 15.9% (1% HSA, 20 μg/ml GML); less than 10% (2% HSA, 10 and 20 μg/ml GML).
